Values of other authors, collected in patent publication US20100143452A1, “POLYPHENOL CONTAINING COMPOSITIONS” (Universiteit Utrecht Holding B.V., priority 2006, published 2010).
At least one compound was matched to its structure with a doubt left.

Columns and labels:
[1] = cited from earlier work
[2] = cited from earlier work; remark: listed apart in the source

## O=C(O[C@@H]1Cc2c(O)cc(O)cc2O[C@@H]1c1cc(O)c(O)c(O)c1)c1cc(O)c(O)c(O)c1 [EGCG, Epigallocatechin gallate]
[1]
  antioxidant potency relative to vitamins C and E: 25-100 times

## OCCc1ccc(O)c(O)c1 [Hydroxytyrosol]
[2]
  free radical scavenging capacity relative to epicatechin: more than 3 times
  free radical scavenging capacity relative to quercetin: double
